These are yes or no findings as the source states them, for the method shown. Some binding calls cover weakened binding; strength is not graded here.

Drawing on paper PMC3538345, this text covers binding for one molecule.

The target of the experiment is T1, C2H2 Zinc finger protein Ken (Drosophila) (UniProt O77459).
T1 sequence: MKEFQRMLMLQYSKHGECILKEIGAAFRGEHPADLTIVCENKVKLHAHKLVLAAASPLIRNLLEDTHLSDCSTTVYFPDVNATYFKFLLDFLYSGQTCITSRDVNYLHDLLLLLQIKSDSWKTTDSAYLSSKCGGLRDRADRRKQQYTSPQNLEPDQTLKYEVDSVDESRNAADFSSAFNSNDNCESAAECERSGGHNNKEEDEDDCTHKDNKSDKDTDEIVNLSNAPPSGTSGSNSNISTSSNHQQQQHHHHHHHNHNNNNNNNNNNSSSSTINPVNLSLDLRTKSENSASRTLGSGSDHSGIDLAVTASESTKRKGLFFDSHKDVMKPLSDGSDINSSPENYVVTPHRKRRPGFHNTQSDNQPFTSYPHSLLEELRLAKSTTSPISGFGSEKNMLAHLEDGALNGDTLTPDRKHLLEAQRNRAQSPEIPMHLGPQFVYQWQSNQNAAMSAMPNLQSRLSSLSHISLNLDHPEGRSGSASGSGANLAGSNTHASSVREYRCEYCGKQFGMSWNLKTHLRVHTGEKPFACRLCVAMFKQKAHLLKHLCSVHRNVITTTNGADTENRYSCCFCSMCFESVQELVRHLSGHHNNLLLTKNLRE
Briefly: two-hybrid; yeast two-hybrid analysis; bait and prey not told (Figure S5B and not shown).

B1: Lolal (protein, UniProt Q7KRI2 1-127)
chain: MMSSDQQFFLKWNDFQTNMVTSFRHLRDEKSFTDVTLACEGQTCKAHKMVLSACSPYFKALLEENPSKHPIIILKDVSYIHLQAILEFMYAGEVNVSQEQLPAFLKTADRLKVKGLAETPSSIKREG
As for B1, the binding entry was “binds”.
